# Results as given in PubChem BioAssay AID2675 (National Center for Advancing Translational Sciences (NCATS), 2010).
# By UniProt entry, the sequences of proteins in these tests, tags left out.
# UniProt Q9NR56, whole entry: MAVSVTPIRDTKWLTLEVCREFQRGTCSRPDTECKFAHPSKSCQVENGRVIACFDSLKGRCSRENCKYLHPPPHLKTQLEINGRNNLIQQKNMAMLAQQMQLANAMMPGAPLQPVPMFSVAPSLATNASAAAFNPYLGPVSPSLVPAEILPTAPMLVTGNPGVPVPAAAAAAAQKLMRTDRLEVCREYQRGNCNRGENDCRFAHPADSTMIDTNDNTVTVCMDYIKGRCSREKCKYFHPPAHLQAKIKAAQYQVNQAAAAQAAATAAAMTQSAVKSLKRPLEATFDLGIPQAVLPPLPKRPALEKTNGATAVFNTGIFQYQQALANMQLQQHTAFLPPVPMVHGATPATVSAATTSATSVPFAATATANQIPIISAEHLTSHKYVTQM
# In all, about 280,000 compounds went through this assay and about 100 (0.036%) were called active. Only results without a clear call are listed here; the source files them as inconclusive. Calls come from the whole dose curve; as a rule, active = well fitted inhibition curve with a large enough effect in the signal ratio, with a control signal flat (not every such curve was filed as active); inconclusive = small, poorly fitted or top-dose-only effect, or effect the other way, or a change in a side signal; inactive = no such curve, though single readings can be large or run the other way; the % refers to the signal ratio. Some structures show a salt or complex split into parts, the way the source records it.
# Target: Muscleblind-like protein 1 (Homo sapiens) (UniProt Q9NR56)
# Assay: qHTS Assay for Inhibitors of MBNL1-poly(CUG) RNA binding
# Settings: TR-FRET MBNL1-His/biotin-(CUG)12 binding, 665/545 ratio
# Potency is the fitted concentration of half-maximal effect.
row,Structure (SMILES),Potency
1,O=C(O)c1cccc(Nc2c([N+](=O)[O-])cc([N+](=O)[O-])cc2[N+](=O)[O-])c1,inconclusive: 17.8 µM
2,CCOC(=O)C(CC)C1=NC(C)(C)Cc2ccccc21.O=[N+]([O-])c1cc([N+](=O)[O-])c(O)c([N+](=O)[O-])c1 (configuration not stated),inconclusive: 28.2 µM
3,O=C(NCC1(N2CCOCC2)CCCCC1)c1cc(=O)[nH]c2ccccc12,inconclusive: 39.8 µM
4,CN1CCN(CCOC(=O)C(O)(c2ccccc2)c2ccccc2)CC1,inconclusive: 5.01 µM
5,O=[N+]([O-])c1cc([N+](=O)[O-])c(NCC2CCS(=O)(=O)C2)c([N+](=O)[O-])c1 (configuration not stated),inconclusive: 11.2 µM
6,O=[N+]([O-])c1cc([N+](=O)[O-])c(OC2CCCCC2O)c([N+](=O)[O-])c1 (configuration not stated),inconclusive: 14.1 µM
7,COc1ccc2c(c1O)-c1c(O)c(OC)cc3c1[C@H](C2)[N+](C)(C)CC3.O=[N+]([O-])c1cc([N+](=O)[O-])c([O-])c([N+](=O)[O-])c1[O-],inconclusive: 39.8 µM
